Results as given in patent publication US6383753 (REGENTS OF THE UNIVERSITY OF MICHIGAN, dated 2002).
No constants are given. Whether binding was seen depends on the method and setting. Some entries that bind do so weakly or less than the wild type.

Chains of the proteins cited; added tags and fusions are not shown. Lines headed by an entry give the natural chain unless they say otherwise; changes in a name come on top.
UniProt P78316: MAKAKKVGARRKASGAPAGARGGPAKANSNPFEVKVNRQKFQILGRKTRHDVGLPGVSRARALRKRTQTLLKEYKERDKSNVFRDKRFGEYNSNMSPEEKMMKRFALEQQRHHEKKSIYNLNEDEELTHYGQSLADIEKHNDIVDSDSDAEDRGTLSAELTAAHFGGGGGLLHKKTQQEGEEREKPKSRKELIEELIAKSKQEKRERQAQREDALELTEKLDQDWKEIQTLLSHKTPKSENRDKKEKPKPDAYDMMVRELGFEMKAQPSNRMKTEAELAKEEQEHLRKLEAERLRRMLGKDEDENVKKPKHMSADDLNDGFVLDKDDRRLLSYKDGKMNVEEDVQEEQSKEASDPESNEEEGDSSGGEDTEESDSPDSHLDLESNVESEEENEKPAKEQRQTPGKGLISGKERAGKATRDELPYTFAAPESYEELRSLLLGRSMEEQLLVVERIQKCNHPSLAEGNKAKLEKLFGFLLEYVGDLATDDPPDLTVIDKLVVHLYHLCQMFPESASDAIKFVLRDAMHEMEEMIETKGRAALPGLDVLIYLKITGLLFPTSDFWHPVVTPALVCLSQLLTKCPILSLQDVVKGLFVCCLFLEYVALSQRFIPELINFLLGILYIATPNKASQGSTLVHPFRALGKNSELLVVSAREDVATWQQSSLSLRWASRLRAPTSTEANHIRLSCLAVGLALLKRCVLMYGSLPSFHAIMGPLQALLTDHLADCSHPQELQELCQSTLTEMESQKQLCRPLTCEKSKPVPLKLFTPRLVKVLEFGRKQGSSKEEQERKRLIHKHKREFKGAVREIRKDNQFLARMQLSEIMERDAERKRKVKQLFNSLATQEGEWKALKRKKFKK

Legend:
human ENIP1 (human) [1] = biological target: T1, human ENIP1 (human) (UniProt P78316); experiment: yeast two-hybrid (FIG. 17)
T1 sequence: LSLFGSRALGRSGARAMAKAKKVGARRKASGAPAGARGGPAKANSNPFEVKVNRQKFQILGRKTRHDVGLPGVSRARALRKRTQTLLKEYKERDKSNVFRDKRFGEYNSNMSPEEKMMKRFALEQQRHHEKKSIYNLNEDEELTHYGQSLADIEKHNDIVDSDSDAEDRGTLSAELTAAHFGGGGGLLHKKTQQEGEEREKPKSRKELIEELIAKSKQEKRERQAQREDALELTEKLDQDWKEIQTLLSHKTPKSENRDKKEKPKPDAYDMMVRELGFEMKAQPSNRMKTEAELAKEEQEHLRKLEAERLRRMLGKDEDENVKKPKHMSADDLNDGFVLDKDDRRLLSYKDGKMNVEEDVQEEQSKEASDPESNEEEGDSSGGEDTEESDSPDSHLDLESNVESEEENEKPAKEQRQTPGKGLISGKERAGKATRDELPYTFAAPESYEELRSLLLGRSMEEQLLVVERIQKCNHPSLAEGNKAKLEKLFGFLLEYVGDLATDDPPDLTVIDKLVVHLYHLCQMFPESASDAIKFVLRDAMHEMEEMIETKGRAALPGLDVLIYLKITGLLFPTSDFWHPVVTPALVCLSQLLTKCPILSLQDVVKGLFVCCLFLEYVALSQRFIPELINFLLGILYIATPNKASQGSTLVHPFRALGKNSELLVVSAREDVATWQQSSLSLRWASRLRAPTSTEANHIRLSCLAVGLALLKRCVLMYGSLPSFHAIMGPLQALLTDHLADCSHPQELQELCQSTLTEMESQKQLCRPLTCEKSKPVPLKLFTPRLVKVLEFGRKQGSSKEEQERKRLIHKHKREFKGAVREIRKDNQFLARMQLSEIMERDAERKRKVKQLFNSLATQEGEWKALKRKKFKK

human ENIP1 (human) [2] = biological target: T1, human ENIP1 (human); experiment: yeast two-hybrid, cell growth assay on selective (no histidine) medium

- binding (human ENIP1 (human) [1]): binds
- binding (human ENIP1 (human) [2]): binds
B1: mouse Emg1 protein (other)
chain: MSAASGGFQPRERRFSVQEQDWETTPPKKLRLGAGSKCGGRRLIVVLEGASLETVKVGKTYELLNCDRHKSMLLKNGRDPGEVRPDITHQSLLMLMDSPLNRAGLLQVYIHTQKNVLIEVNPQTRIPRTFDRFCGLMVQLLHKLSVRAADGPQKLLKVIKNPVSDHFPVGCMKIGTSFSVEDISDIRELVPSSDPVVFVVGAFAHGKVSVEYTEKMVSISNYPLSAALTCAKVTTAFEEVWGVI
notes: Used as a two-hybrid fusion; also called mEmg1; murine Emg1
